The list shows a part of the results.

Amino acid sequences for entries named in this document (tags omitted). A change or cut given only in a name is not applied to a line headed by its entry.
UniProt O94763, whole entry, looked up: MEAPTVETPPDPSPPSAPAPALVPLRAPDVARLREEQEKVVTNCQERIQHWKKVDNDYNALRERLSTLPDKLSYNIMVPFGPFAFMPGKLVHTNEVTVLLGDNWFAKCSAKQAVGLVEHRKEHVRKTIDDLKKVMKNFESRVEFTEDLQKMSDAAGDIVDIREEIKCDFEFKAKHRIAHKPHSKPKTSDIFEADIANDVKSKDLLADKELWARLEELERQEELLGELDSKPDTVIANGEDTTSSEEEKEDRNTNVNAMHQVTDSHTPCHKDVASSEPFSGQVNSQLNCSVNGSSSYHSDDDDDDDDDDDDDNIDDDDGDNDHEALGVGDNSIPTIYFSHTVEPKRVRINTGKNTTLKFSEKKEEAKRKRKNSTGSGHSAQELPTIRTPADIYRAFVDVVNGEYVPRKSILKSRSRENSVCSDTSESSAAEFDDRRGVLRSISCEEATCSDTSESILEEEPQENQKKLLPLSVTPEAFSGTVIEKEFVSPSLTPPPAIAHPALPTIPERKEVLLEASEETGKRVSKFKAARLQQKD
UniProt Q15386: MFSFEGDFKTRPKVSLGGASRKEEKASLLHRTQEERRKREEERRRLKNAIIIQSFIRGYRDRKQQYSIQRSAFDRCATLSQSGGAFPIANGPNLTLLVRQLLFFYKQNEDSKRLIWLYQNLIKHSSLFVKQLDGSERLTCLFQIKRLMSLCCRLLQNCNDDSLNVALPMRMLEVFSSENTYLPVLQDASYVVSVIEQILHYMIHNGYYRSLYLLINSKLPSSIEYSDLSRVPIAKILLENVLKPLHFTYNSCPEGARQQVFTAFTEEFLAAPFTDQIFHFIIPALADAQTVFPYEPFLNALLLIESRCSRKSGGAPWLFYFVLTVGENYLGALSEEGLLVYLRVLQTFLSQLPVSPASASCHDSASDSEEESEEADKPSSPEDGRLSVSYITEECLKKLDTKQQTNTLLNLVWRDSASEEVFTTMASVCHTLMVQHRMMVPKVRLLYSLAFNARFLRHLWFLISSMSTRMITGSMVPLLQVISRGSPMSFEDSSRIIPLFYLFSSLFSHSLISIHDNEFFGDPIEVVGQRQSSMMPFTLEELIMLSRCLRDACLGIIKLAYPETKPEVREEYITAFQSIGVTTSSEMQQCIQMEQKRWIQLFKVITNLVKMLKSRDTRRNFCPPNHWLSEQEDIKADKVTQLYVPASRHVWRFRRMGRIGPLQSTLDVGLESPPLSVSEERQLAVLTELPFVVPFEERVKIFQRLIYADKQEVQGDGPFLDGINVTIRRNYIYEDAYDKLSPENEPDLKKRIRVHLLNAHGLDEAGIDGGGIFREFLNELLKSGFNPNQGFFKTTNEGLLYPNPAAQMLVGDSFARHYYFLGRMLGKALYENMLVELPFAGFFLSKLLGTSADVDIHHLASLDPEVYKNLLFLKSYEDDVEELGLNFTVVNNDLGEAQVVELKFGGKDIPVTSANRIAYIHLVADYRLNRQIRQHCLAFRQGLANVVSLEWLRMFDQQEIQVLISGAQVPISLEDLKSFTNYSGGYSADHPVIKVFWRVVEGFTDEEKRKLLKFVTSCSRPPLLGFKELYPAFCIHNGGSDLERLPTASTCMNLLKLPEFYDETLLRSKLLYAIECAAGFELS
UniProt O75379: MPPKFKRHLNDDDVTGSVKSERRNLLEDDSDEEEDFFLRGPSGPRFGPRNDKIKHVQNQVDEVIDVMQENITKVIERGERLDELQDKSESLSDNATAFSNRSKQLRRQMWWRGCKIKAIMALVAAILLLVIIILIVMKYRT
UniProt Q9NWZ5: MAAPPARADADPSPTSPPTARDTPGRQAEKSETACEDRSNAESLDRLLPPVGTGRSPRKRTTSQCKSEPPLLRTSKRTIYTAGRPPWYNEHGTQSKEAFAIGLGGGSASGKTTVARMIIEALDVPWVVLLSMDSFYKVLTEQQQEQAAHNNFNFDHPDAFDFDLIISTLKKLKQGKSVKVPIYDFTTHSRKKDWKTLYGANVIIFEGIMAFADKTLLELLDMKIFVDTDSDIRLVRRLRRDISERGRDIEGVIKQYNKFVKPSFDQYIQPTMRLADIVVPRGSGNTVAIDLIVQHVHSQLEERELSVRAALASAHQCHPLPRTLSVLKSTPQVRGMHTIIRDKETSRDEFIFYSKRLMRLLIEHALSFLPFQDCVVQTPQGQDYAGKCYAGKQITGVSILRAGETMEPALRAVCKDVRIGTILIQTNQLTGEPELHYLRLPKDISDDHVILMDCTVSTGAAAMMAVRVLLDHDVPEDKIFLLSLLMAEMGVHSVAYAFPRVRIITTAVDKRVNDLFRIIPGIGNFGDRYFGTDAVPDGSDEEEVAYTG
UniProt Q8N806: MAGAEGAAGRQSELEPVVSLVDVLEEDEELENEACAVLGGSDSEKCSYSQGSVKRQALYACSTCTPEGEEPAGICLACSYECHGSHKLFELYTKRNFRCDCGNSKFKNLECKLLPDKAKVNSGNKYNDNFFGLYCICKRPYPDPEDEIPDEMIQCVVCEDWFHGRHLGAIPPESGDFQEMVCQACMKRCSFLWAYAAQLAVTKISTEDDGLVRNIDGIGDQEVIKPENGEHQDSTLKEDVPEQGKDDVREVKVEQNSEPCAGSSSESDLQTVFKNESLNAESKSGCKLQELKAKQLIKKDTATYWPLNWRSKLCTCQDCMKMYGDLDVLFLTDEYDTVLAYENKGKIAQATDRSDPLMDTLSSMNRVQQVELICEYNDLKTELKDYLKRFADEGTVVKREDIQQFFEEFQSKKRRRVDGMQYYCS
UniProt P07919: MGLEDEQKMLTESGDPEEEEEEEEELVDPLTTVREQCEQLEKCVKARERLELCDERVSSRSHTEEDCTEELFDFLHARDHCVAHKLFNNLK
UniProt P15374: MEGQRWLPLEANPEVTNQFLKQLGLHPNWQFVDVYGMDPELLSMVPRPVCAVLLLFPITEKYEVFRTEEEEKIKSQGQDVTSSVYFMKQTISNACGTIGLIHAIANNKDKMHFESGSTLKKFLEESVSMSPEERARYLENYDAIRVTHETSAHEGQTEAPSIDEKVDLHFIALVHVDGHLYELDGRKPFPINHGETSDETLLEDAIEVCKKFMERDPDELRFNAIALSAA
UniProt Q93008, whole entry, looked up: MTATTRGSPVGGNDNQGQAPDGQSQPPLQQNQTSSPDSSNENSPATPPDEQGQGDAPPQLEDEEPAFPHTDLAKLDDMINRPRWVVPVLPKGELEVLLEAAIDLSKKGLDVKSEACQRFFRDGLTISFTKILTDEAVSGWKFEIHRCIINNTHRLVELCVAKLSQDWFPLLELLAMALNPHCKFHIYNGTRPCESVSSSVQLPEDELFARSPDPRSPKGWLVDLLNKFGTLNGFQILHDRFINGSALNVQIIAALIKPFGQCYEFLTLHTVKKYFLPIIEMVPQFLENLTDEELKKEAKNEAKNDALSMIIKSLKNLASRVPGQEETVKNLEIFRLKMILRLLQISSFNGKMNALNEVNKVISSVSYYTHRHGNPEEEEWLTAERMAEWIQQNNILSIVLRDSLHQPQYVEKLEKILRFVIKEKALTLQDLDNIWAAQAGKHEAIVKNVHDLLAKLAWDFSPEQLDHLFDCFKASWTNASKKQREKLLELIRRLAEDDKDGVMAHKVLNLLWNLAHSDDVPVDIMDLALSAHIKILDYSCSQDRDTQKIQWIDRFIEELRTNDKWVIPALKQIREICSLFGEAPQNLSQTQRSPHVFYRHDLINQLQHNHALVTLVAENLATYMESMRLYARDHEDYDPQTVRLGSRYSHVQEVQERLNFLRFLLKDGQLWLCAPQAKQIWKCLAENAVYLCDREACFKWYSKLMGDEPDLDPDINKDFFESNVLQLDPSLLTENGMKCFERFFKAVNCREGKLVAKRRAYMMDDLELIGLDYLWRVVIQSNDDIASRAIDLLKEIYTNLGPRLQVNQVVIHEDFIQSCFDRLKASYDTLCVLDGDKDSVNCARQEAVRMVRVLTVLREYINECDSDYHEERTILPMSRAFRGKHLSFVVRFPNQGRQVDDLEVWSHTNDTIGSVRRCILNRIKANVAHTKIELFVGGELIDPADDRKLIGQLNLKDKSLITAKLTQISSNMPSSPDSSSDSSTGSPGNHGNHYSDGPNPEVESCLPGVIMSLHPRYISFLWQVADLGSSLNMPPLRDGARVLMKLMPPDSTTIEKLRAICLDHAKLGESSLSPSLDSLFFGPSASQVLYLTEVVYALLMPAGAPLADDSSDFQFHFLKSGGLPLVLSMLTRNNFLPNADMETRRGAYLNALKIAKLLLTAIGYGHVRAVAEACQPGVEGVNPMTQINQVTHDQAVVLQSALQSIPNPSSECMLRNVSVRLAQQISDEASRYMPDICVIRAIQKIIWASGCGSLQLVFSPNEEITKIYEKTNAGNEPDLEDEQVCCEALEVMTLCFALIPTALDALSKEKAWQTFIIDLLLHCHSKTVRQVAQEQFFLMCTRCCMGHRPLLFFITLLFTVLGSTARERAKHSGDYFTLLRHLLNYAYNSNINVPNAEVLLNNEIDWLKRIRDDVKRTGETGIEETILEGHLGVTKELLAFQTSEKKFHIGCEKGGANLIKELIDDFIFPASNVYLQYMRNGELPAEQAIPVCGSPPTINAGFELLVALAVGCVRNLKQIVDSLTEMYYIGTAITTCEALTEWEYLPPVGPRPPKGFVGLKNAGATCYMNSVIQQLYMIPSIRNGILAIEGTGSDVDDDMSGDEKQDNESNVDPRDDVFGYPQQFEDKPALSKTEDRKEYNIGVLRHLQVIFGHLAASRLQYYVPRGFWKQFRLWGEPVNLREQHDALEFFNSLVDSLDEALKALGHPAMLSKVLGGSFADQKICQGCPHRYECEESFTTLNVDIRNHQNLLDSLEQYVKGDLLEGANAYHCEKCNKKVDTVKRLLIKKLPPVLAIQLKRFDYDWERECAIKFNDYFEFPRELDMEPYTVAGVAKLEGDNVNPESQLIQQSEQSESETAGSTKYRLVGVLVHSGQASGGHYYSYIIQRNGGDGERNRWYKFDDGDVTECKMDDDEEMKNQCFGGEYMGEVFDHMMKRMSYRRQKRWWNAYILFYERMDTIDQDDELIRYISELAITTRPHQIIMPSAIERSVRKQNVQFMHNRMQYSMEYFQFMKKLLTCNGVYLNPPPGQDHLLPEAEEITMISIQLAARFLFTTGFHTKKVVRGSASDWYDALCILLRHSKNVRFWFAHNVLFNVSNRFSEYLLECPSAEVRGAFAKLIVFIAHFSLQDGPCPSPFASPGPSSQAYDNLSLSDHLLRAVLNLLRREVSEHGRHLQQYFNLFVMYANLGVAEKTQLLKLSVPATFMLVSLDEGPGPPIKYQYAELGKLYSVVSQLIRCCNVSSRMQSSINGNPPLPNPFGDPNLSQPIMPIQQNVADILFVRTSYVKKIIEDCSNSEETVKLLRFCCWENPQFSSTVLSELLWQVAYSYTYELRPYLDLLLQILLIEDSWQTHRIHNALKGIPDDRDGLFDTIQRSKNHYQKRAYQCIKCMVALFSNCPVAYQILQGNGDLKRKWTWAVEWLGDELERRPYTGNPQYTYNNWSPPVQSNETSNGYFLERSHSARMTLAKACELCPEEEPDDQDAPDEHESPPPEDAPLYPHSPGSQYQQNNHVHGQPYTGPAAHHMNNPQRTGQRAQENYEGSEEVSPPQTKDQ
UniProt P54578: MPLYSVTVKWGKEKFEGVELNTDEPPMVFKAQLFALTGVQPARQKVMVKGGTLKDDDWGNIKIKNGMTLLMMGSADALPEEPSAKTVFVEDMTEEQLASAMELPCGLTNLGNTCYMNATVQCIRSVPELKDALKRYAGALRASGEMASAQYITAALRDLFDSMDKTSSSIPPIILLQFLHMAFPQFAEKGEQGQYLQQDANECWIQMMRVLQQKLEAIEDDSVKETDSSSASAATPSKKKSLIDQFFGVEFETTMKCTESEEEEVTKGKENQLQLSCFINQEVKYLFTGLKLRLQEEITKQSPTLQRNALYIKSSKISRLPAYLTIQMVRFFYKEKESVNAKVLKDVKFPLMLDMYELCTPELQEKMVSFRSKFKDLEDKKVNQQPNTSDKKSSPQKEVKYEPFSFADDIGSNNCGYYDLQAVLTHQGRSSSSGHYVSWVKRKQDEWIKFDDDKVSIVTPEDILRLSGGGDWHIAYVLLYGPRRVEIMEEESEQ
UniProt P50552: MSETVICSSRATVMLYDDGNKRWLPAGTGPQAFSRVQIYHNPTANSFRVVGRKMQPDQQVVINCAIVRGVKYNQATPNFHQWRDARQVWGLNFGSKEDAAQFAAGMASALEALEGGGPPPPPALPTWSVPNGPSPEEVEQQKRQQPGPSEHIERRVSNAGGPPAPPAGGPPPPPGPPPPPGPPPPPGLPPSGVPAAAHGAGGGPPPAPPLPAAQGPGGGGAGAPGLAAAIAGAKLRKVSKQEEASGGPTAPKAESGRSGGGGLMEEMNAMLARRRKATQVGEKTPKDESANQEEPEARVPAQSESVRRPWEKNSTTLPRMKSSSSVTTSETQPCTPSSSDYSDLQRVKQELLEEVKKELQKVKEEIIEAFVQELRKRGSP

Compound in the assay: NC(=O)c1cnc(N[C@@H]2CCCC[C@@H]2N)nc1Nc1cccc(-n2nccn2)c1
Nature of the assay: log2 fold change, soluble protein after heating vs DMSO (PISA); higher = thermal stabilisation; K562 cells, 10 uM, 30 min; active = over 0.2 and 3.5 SD of the protein, either way, in both replicates (recomputed). The method, boiled down:
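Aliquots of K562 cells (2×10^6 cells/mL) treated with 10 μM compound for 30 min were heated for 3 min over 48°C-58°C. After pooling and extraction in PBS with 0.5% NP-40 at 4°C, soluble protein from a 21,000xg, 90 min spin was quantified by TMTpro 16plex LC-MS/MS with channel sums equalised. Thermal stability is expressed against control samples, from duplicates, as a log2 fold change.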
As for USE1 (UniProt Q9NZ43), the log2 fold change is inactive: -0.012. Turning to URI1 (UniProt O94763), the log2 fold change was inactive: -0.088.

Consider UMPS (UniProt P11172), for which the log2 fold change was inactive: -0.008. As for UTP3 (UniProt Q9NQZ2), the log2 fold change was inactive: 0.074.

For UIMC1 (UniProt Q96RL1), the log2 fold change is inactive: 0.111. Take USP8 (UniProt P40818): the log2 fold change was inactive: -0.077. Turning to UGGT2 (UniProt Q9NYU1), the log2 fold change was inactive: -0.089.

As for UBR4 isoform 2 (UniProt Q5T4S7), the log2 fold change is inactive: -0.041. Consider UBE3C (UniProt Q15386), for which the log2 fold change is inactive: -0.061. UQCRFS1 (UniProt P47985): the log2 fold change was inactive: 0.092. As for UBQLN1 (UniProt Q9UMX0), the log2 fold change is inactive: 0.044. With UTP14A (UniProt Q9BVJ6), the log2 fold change was inactive: 0.048. With UBXN7 (UniProt O94888), the log2 fold change was inactive: -0.048.

For the target VAMP4 (UniProt O75379), the log2 fold change was inactive: -0.006. Turning to VAPA (UniProt Q9P0L0), the log2 fold change was inactive: -0.029. The figure for VARS (UniProt P26640) is inactive: -0.042. Regarding UCKL1 (UniProt Q9NWZ5), the log2 fold change was inactive: -0.035. Turning to USP48 isoform 8 (UniProt Q86UV5), the log2 fold change was inactive: 0.002. Then VCL (UniProt P18206), with inactive: 0.013; and UGGT1 (UniProt Q9NYU2), with inactive: -0.025; and UQCC2 (UniProt Q9BRT2), with inactive: -0.003.

UBR7 (UniProt Q8N806): the log2 fold change is inactive: -0.067. As for USP5 (UniProt P45974), the log2 fold change was inactive: -0.047. On to UQCRH (UniProt P07919), for which the log2 fold change was inactive: -0.022.

In the case of USP10 isoform 2 (UniProt Q14694), the log2 fold change was inactive: -0.033.

For UROS (UniProt P10746), the log2 fold change is inactive: 0.025. As for UCHL3 (UniProt P15374), the log2 fold change was inactive: -0.045.

In the case of UFD1 isoform 1 (UniProt Q92890), the log2 fold change was inactive: -0.015. In the case of VARS2, A0A0G2JL52, the log2 fold change is inactive: -0.01. For the target VAPA isoform 2 (UniProt Q9P0L0), the log2 fold change is inactive: -0.01. On to UQCRC2 (UniProt P22695), for which the log2 fold change was inactive: 0.013. Consider USP15 (UniProt Q9Y4E8), for which the log2 fold change was inactive: -0.078. Turning to UBE4B isoform 4 (UniProt O95155), the log2 fold change was inactive: -0.055. With UGT8 (UniProt Q16880), the log2 fold change was inactive: 0.104.

Turning to UROD (UniProt P06132), the log2 fold change is inactive: 0.052. Consider UEVLD (UniProt Q8IX04), for which the log2 fold change is inactive: 0.037. In the case of USP9X (UniProt Q93008), the log2 fold change was inactive: -0.062. With USP14 (UniProt P54578), the log2 fold change is inactive: -0.006.

As to VASP (UniProt P50552), the log2 fold change was inactive: -0.15.
